Reference: patent publication US12535491B2, “Vaccine comprising protein-targeted (PT) extracellular DNA isolated from bacterial matrix” (priority 2018, dated 2026)

Test system: heat-resistant proteins of human plasma
Assay: LC/MS of heat-resistant proteins in plasma after exposure to proteinase K and boiling

B1: IGHG2_HUMAN (protein, UniProt P01859 1-395, looked up)
Immunoglobulin heavy constant …: ASTKGPSVFPLAPCSRSTSESTAALGCLVKDYFPEPVTVSWNSGALTSGVHTFPAVLQSSGLYSLSSVVTVPSSNFGTQTYTCNVDHKPSNTKVDKTVERKCCVECPPCPAPPVAGPSVFLFPPKPKDTLMISRTPEVTCVVVDVSHEDPEVQFNWYVDGVEVHNAKTKPREEQFNSTFRVVSVLTVVHQDWLNGKEYKCKVSNKGLPAPIEKTISKTKGQPREPQVYTLPPSREEMTKNQVSLTCLVKGFYPSDISVEWESNGQPENNYKTTPPMLDSDGSFFLYSKLTVDKSRWQQGNVFSCSVMHEALHNHYTQKSLSLSPELQLEESCAEAQDGELDGLWTTITIFITLFLLSVCYSATITFFKVKWIFSSVVDLKQTIVPDYRNMIRQGA
N-plasma + pk (LC/MS, control plasma with added proteinase K, heated at 100° C. for 5 minutes): 31 | Effect (N-plasma + pk vs N-plasma) (change on adding proteinase K to normal plasma): ↑
